US4285942A, “Cyclododecanone oximes” (Egyt Gyogyszervegyeszeti Gyar, priority 1978, dated 1981)
For at least one compound, name, drawing or mass did not settle the structure.

System: isolated rat ileum
Experiment: Spasmolytic effect on smooth muscle, isolated rat ileum (method of Brock), papaverine as reference
Conditions: relative to papaverine
Description: The spasmolytic effect on smooth muscle was determined on isolated rat ileum according to the method of Brock et al. [H. Brock, J. Ceks, D. Lorenz: Arch. Exper. Path. u. Pharmacol. 215, 492/1952/] by using papaverine as the reference substance. In order to characterize the efficiency of the individual compounds their relative effect with respect to papaverine are enumerated in Table 2 below.

CN(C)CCON=C1CCCCCCCCCCC1 [Example 2, 1-(Dimethylamino-ethoxyimino)cyclododecane]
Relative efficiency: 1.6

CC(C)N(CCON=C1CCCCCCCCCCC1)C(C)C [Example 5, 1-(Diisopropylamino-ethoxyimino)cyclododecane]
Relative efficiency: 1.7
